Results as given in article PMC10613289.
For at least one entry, the source does not settle the construct or the ends of the probe. Results from cells or extracts need not show a direct contact. A negative result means that nothing was seen under these conditions.

By UniProt entry, the sequences of proteins in these tests, tags left out.
UniProt O00425, whole entry: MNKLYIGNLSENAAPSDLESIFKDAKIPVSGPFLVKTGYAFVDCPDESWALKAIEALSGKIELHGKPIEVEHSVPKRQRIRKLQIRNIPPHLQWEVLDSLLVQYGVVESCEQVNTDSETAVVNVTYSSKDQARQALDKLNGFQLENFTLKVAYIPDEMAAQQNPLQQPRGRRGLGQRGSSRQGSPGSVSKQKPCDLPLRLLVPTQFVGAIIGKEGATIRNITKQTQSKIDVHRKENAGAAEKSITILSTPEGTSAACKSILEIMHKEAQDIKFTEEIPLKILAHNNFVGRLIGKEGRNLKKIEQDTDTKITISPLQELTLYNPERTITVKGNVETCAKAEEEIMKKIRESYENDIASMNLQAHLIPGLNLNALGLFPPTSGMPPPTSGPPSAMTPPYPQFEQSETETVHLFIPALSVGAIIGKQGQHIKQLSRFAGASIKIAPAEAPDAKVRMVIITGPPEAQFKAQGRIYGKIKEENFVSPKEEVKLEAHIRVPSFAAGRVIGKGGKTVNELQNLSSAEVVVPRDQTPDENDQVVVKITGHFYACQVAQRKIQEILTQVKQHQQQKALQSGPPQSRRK

Target: IGF2BP3 endogenous (human (A549, SW620, HCT116 cells)) (UniProt O00425)
Assay: pull-down
Conditions: A549 lysate, protein in an extract, label: 3' biotin

## ACUAGCUGGUGCGACCAUCAGUGAAGAAGA [M2 probe]
  binding result: no binding

## ACUCUAAACGGAGCUGCAUUGAGUGCCACC [M1 (M1-WT) probe]
  binding result: binds

## ACUCUAAACGGAGCUGGUAAGAGUGCCACC [M1-mut probe]
'remarkably abolished'
  binding result: no binding
